Test results as given in patent publication US5738858A, “Skin care compositions containing fatty hydroxyethyl imidazoline surfactants and retinol or retinyl ester” (priority 1996, dated 1998).
For at least one compound, name, drawing or mass did not settle the structure.

Tested on: ARAT
Assay: In vitro microsomal esterification of retinol, ARAT catalyzed (retinyl palmitate formation)
Settings: 100 μM; Table 2; 1 hour, 37° C.

Q: `O=S(=O)(O)c1ccc2[nH]c(-c3ccccc3)nc2c1` [phenyl benzimidazole sulfonic acid] was tested. Which “% INHIB. ARAT” value did it give?
A: The value was 0%.
